For at least one entry, the source does not settle the construct or the ends of the probe. A weaker result is weaker than the reference pair of the same experiment. For some of these results: Where a protein sequence is shown, tags need not be part of it.
Legend:
TBP + TFB = test: DNase I footprinting; conditions: with 2.8 uM CopR: TBP/TFB lost at copR promoter, still present at copA promoter; DNase I: 4.4 nM DNA, 40 mM Na-HEPES pH 7.5, 125 mM NaCl, 0.1 mM EDTA, 0.1 mg/ml BSA, 1 mM DTT, 0.5 mM MgCl2, 20 min 70 C; recombinant protein; label: 5'-HEX on S1 or S2 strand (separate reactions); probe letters rebuilt from the primers and the genome
[1] = biological target: T1, CopRΔHIS (Pyrococcus furiosus) (UniProt Q8U2U0); test: EMSA; conditions: CuSO4 50-1600 uM (200 nM protein), release slightly reduced vs full-length; EMSA: 20 nM DNA, 40 mM HEPES pH 7.4, 80 mM (NH4)2SO4, 670 uM DTT, 20 ug/ml BSA, 6.7% glycerol, 50 ng HindIII-digested lambda DNA, 5 min 70 C; recombinant protein; label: 5'-Cy3 on S1 strand; probe letters rebuilt from the primers and the genome
T1 sequence (looked up, limits assumed): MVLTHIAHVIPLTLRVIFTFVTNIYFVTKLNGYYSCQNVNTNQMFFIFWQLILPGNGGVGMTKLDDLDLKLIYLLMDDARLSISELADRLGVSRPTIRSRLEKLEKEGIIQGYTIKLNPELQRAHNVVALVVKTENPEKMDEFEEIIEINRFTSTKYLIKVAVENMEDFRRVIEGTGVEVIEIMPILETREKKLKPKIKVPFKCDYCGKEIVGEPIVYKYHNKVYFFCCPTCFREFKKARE

[2] = biological target: T2, CopR (Pyrococcus furiosus) (UniProt Q8U2U0); test: EMSA; conditions: EMSA: 20 nM DNA, 40 mM HEPES pH 7.4, 80 mM (NH4)2SO4, 670 uM DTT, 20 ug/ml BSA, 6.7% glycerol, 50 ng HindIII-digested lambda DNA, 5 min 70 C, recombinant protein, label: 5'-Cy3 on S1 strand, probe letters rebuilt from the primers and the genome
T2 sequence (looked up, limits assumed): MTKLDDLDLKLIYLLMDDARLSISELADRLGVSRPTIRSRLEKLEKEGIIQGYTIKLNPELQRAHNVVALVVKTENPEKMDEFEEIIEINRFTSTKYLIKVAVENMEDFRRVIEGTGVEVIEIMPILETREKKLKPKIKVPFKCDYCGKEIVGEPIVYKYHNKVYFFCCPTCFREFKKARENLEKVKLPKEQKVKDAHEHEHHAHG

Measured: binding result

GAGTGATCTTCACTTTCGTCACCAATATTTACTTTGTGACGAAACTTAATGGGTATTATTCATGCCAAAATGTAAACACTAACCAAATGTTTTTTATATTTTGGCAACTAATACTCCCAGGGAATGGGGGTGTTGGAATGACCAAGTTAGATG (double strand) [copR/copA promoter region (DNase I footprint)]
binds more weakly: TBP + TFB

GAGTGATCTTCACTTTCGTCACCAATATTTACTTTGTGACGAAACTTAATGGGTATTATTCATGCCAAAATGTAAACACTAACCAAATGTTTTTTATATTTTGGCAACTAATACTCCCAGGGAATGGGGGTGTTGGAATGACCAAGTTAGATG (double strand) [copR/copA intergenic promoter region (EMSA)]
binds more weakly: [1] | [2]; AgNO3 12.5-50 uM (200 nM protein), strong effect | [2]; CoCl2 12.5-50 uM (200 nM protein), smaller effect than Cu, Ag | [2]; CuSO4 12.5-50 uM (200 nM protein), release from 12.5 uM | [2]; CuSO4 50-1600 uM (200 nM protein) | [2]; FeCl3 12.5-50 uM (200 nM protein), smaller effect than Cu, Ag

Reference: article PMC7830388
